Assay results reported in US20030157685A1.
No constants are given. Whether binding was seen depends on the method and setting. A result given as binding can be weak or reduced; the word gives no strength. Tags and fused reporters may be left off the sequences shown.

Molecular target: carboxy terminus of Myc
Assay: yeast two-hybrid

B1: p32.2, polypeptide of 756 amino acids encoded by clone 32.2, fused in frame with the B42 activation domain of the pJG-4.5 vector (protein, not shown: large carriers)
chain: IENDQQHQAAELECEEDVIPDSPITAFSFSGVNRLRRKENPHVRYIEQTHTKLEHSVCANEMRKVSKSSTHPQHNPNENEILVADTYDQSQSPMAKAHGTSSYTPDKSSFNLATVVAETLGLGVQEESETQGPMSPLGDELYHCLEGNHKKQPFEESTRNTEDSLRFSDSTSKTPPQEELPTRVSSPVFGATSSIKSGLDLNTSLSPSLLQPGKKKHLKTLPFSNTCISRLEKTRSKSEDSALFTHHSLGSEVNKIIIQSSNKQILINKNISESLGEQNRTEYGKDSNTDKHLEPLKSLGGRTSKRKKTEEESEHEVSCPQASFDKENAFPFPMDNQFSMNGDCVMDKPLDLSDRFSAIQRQEKSQGSETSKNKFRQVTLYEALKTIPKGFSSSRKASDGNCTLPKDSPGEPCSQECIILQPLNKCSPDNKPSLQIKEENAVFKIPLRPRESLETENVLDDIKSAGSHEPIKIQTRSDHGGCELASVLQLNPCRTGKIKSLQNNQDVSFENIQWSIDPGADLSQYKMDVTVIDTKDGSQSKLGGETVDMDCTLVSETVLLKMKKQEQKGEKSSNEERKMNDSLEDMFDRTTHEEYESCLADSFSQAADEEEELSTATKKLHTHGDKQDKVKQKAFVEPYFKGDERETSLQNFPHIECVRKKEERRKLLGHTCKECEIYYADMPAEEREKKLASCSRHRFRYIPPNTPENFWEVGFPSTQTCMERGYIKEDLDPCPRPKRRQPYNAIFSPKGKEQKT
- binding: binds
